{"source": "patent US20060199214A1", "about": "“Incorporation of modified nucleotides by archaeon DNA polymerases and related methods” (priority 1999, published 2006)", "system": "Thermo Sequenase™ DNA polymerase", "assay": "Titration assay of chain terminator incorporation by Thermo Sequenase", "type": "biochemical", "conditions": "thermal cycled, FIG. 9", "description": "Samples were then heated at 72° C. for 3 minutes and separated on a QuickPoint DNA sequencing gel (NOVEX, San Diego, Calif.) run at 1200 volts. The gel was fixed by soaking in 10% acetic acid/10% ethanol, dried, and polymerization products visualized by autoradiography.\nIn a related experiment dye-acyclo-CTP incorporation by the analogous […] variant was evaluated.\nThe 2X cocktail was split in half and 9° N™ (exo-)/A485L DNA polymerase or Thermo Sequenase™ was added to a final concentration of 0.04 U/μl. […] Reactions were thermal cycled as follows: • 94° C. 5 minutes • 25 cycles at: • 94° C. 30 seconds • 55° C. 30 seconds • 72° C. 30 seconds • 72° C. 7 minutes", "note": "At least one structure is not confirmed: it was looked up by name or label, or the drawing left a doubt."}
{"smiles": "Nc1nc2c(ncn2[C@H]2CC[C@@H](COP(=O)(O)OP(=O)(O)OP(=O)(O)O)O2)c(=O)[nH]1", "note": "[ddGTP]", "values": [{"measurement": "Ratio of terminator:dGTP giving similar banding pattern", "value": "1:9"}]}
